This note sets out measurements from patent US10287530B2, “Surfactants based on monounsaturated fatty alcohol derivatives” (priority 2013, dated 2019).

This series in a line: Gardner Straight-Line Washability Test (aqueous degreaser, greasy dirt soil on white vinyl tile). Particulars: versus control (WA-Extra).

Take “1-Undecanol, 3EO Ether Sulfate, Sodium Salt [Sat. C11 alcohol 3EO Na sulfate]”: the Rating entry is reported as “equal”.
The result for “Undecylenic Alcohol Sulfate, Sodium Salt [Unsat. C11 alcohol Na sulfate]” reads “equal”; that for “Undecylenic Alcohol, 3EO Ether Sulfate, Sodium Salt [Unsat. C11 alcohol 3EO Na sulfate]”, “equal”.
